{"source": "PubChem BioAssay AID743121 – NCATS, 2013", "purpose": "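Partners whose loss is lethal together with topoisomerase I blockade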 (primary screen)", "cells": "MDA-MB-231 cells, a human breast cancer line", "reagent": "single siRNA against human genes, 20 nM siRNA (0.8 pmol per well)", "duration": "120 h (drug added 48 h after transfection, read 72 h later)", "conditions": "camptothecin 20 nM (about EC30) for 72 h; vehicle 0.1% DMSO in parallel plates", "measured": "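CellTiter-Glo ATP signal, scaled to control siRNA as percent viability; sensitisation given as log2 of untreated divided by camptothecin-treated viability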", "reading the numbers": "log2 vehicle/camptothecin viability: higher = stronger sensitisation to camptothecin; viability with camptothecin: higher = more viable cells", "hit rule": "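Each gene scored by redundant siRNA activity (RSA) over its individual siRNA ratios; a gene is called active at p < 0.001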", "note": "The whole screen tested about 26,000 reagents; shown is an unselected part. 167 of them (0.63%) count as active. 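Calls are per gene from RSA p-values that are not deposited; an individual active-marked siRNA can sensitise only weakly.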 Unmarked entries are inactive. The numbers tell different reagents against one gene apart. Further read-outs or replicates are left out here."}
The opening 3 entries, ahead of the listing:
{"gene": "MKNK2 (GeneID 2872)", "siRNA no.": 1, "log2 vehicle/camptothecin viability": -0.409, "viability with camptothecin (% of control)": 113}
{"gene": "MKNK2 (GeneID 2872)", "siRNA no.": 2, "log2 vehicle/camptothecin viability": -0.227, "viability with camptothecin (% of control)": 139}
{"gene": "MKNK2 (GeneID 2872)", "siRNA no.": 3, "log2 vehicle/camptothecin viability": -0.618, "viability with camptothecin (% of control)": 97.9}

Results, repeating the preview:
{"gene": "MKNK2 (GeneID 2872)", "siRNA no.": 1, "log2 vehicle/camptothecin viability": -0.409, "viability with camptothecin (% of control)": 113}
{"gene": "MKNK2 (GeneID 2872)", "siRNA no.": 2, "log2 vehicle/camptothecin viability": -0.227, "viability with camptothecin (% of control)": 139}
{"gene": "MKNK2 (GeneID 2872)", "siRNA no.": 3, "log2 vehicle/camptothecin viability": -0.618, "viability with camptothecin (% of control)": 97.9}
{"gene": "MKNK2 (GeneID 2872)", "siRNA no.": 4, "log2 vehicle/camptothecin viability": -0.595, "viability with camptothecin (% of control)": 90.6}
{"gene": "CELSR2 (GeneID 1952)", "siRNA no.": 1, "log2 vehicle/camptothecin viability": -0.19, "viability with camptothecin (% of control)": 38.9}
{"gene": "CELSR2 (GeneID 1952)", "siRNA no.": 2, "log2 vehicle/camptothecin viability": 0.17, "viability with camptothecin (% of control)": 65.2}
{"gene": "CELSR2 (GeneID 1952)", "siRNA no.": 3, "log2 vehicle/camptothecin viability": -0.214, "viability with camptothecin (% of control)": 86.5}
{"gene": "CELSR2 (GeneID 1952)", "siRNA no.": 4, "log2 vehicle/camptothecin viability": -0.527, "viability with camptothecin (% of control)": 79.2}
{"gene": "FRS3 (GeneID 10817)", "siRNA no.": 1, "log2 vehicle/camptothecin viability": -0.426, "viability with camptothecin (% of control)": 79.6}
{"gene": "FRS3 (GeneID 10817)", "siRNA no.": 2, "log2 vehicle/camptothecin viability": 0.129, "viability with camptothecin (% of control)": 73.1}
{"gene": "FRS3 (GeneID 10817)", "siRNA no.": 3, "log2 vehicle/camptothecin viability": 0.0343, "viability with camptothecin (% of control)": 94.7}
{"gene": "FRS3 (GeneID 10817)", "siRNA no.": 4, "log2 vehicle/camptothecin viability": -0.518, "viability with camptothecin (% of control)": 67.1}
{"gene": "IL18RAP (GeneID 8807)", "siRNA no.": 1, "log2 vehicle/camptothecin viability": -0.531, "viability with camptothecin (% of control)": 56.7}
{"gene": "IL18RAP (GeneID 8807)", "siRNA no.": 2, "log2 vehicle/camptothecin viability": -0.252, "viability with camptothecin (% of control)": 92.9}
{"gene": "IL18RAP (GeneID 8807)", "siRNA no.": 3, "log2 vehicle/camptothecin viability": -0.582, "viability with camptothecin (% of control)": 81.5}
{"gene": "IL18RAP (GeneID 8807)", "siRNA no.": 4, "log2 vehicle/camptothecin viability": 0.282, "viability with camptothecin (% of control)": 57}
{"gene": "TRIM15 (GeneID 89870)", "siRNA no.": 1, "log2 vehicle/camptothecin viability": -0.249, "viability with camptothecin (% of control)": 59.8}
{"gene": "TRIM15 (GeneID 89870)", "siRNA no.": 2, "log2 vehicle/camptothecin viability": 0.423, "viability with camptothecin (% of control)": 69.3}
{"gene": "TRIM15 (GeneID 89870)", "siRNA no.": 3, "log2 vehicle/camptothecin viability": 0.271, "viability with camptothecin (% of control)": 54.7}
{"gene": "TRIM15 (GeneID 89870)", "siRNA no.": 4, "log2 vehicle/camptothecin viability": -0.198, "viability with camptothecin (% of control)": 83.6}
{"gene": "GIPC1 (GeneID 10755)", "siRNA no.": 1, "log2 vehicle/camptothecin viability": 0.00856, "viability with camptothecin (% of control)": 96.1}
{"gene": "GIPC1 (GeneID 10755)", "siRNA no.": 2, "log2 vehicle/camptothecin viability": -0.403, "viability with camptothecin (% of control)": 26}
{"gene": "GIPC1 (GeneID 10755)", "siRNA no.": 3, "log2 vehicle/camptothecin viability": -0.0836, "viability with camptothecin (% of control)": 67}
{"gene": "BPI (GeneID 671)", "siRNA no.": 1, "log2 vehicle/camptothecin viability": -0.308, "viability with camptothecin (% of control)": 105}
{"gene": "BPI (GeneID 671)", "siRNA no.": 2, "log2 vehicle/camptothecin viability": -0.208, "viability with camptothecin (% of control)": 117}
{"gene": "BPI (GeneID 671)", "siRNA no.": 3, "log2 vehicle/camptothecin viability": -0.342, "viability with camptothecin (% of control)": 15.8}
{"gene": "BPI (GeneID 671)", "siRNA no.": 4, "log2 vehicle/camptothecin viability": 0.26, "viability with camptothecin (% of control)": 32.3}
{"gene": "CLCNKB (GeneID 1188)", "siRNA no.": 1, "log2 vehicle/camptothecin viability": -0.124, "viability with camptothecin (% of control)": 74.6}
{"gene": "CLCNKB (GeneID 1188)", "siRNA no.": 2, "log2 vehicle/camptothecin viability": 0.321, "viability with camptothecin (% of control)": 31.4}
{"gene": "CLCNKB (GeneID 1188)", "siRNA no.": 3, "log2 vehicle/camptothecin viability": -0.523, "viability with camptothecin (% of control)": 60.1}
{"gene": "CLCNKB (GeneID 1188)", "siRNA no.": 4, "log2 vehicle/camptothecin viability": 0.105, "viability with camptothecin (% of control)": 79.2}
{"gene": "NLRC3 (GeneID 197358)", "siRNA no.": 1, "log2 vehicle/camptothecin viability": 1.48, "viability with camptothecin (% of control)": 18.9}
{"gene": "NLRC3 (GeneID 197358)", "siRNA no.": 2, "log2 vehicle/camptothecin viability": -0.13, "viability with camptothecin (% of control)": 74.5}
{"gene": "NLRC3 (GeneID 197358)", "siRNA no.": 3, "log2 vehicle/camptothecin viability": -0.176, "viability with camptothecin (% of control)": 68.3}
{"gene": "NLRC3 (GeneID 197358)", "siRNA no.": 4, "log2 vehicle/camptothecin viability": -0.00924, "viability with camptothecin (% of control)": 119}
{"gene": "FMO3 (GeneID 2328)", "siRNA no.": 1, "log2 vehicle/camptothecin viability": -0.213, "viability with camptothecin (% of control)": 103}
{"gene": "FMO3 (GeneID 2328)", "siRNA no.": 2, "log2 vehicle/camptothecin viability": -0.403, "viability with camptothecin (% of control)": 92.3}
{"gene": "FMO3 (GeneID 2328)", "siRNA no.": 3, "log2 vehicle/camptothecin viability": 0.13, "viability with camptothecin (% of control)": 47.2}
{"gene": "FMO3 (GeneID 2328)", "siRNA no.": 4, "log2 vehicle/camptothecin viability": 0.0968, "viability with camptothecin (% of control)": 103}
{"gene": "OTC (GeneID 5009)", "siRNA no.": 1, "log2 vehicle/camptothecin viability": -0.496, "viability with camptothecin (% of control)": 62.7}
{"gene": "OTC (GeneID 5009)", "siRNA no.": 2, "log2 vehicle/camptothecin viability": -0.456, "viability with camptothecin (% of control)": 82.4}
{"gene": "OTC (GeneID 5009)", "siRNA no.": 3, "log2 vehicle/camptothecin viability": -0.00941, "viability with camptothecin (% of control)": 84.7}
{"gene": "CRKL (GeneID 1399)", "siRNA no.": 1, "log2 vehicle/camptothecin viability": -0.585, "viability with camptothecin (% of control)": 63}
{"gene": "CRKL (GeneID 1399)", "siRNA no.": 2, "log2 vehicle/camptothecin viability": -0.179, "viability with camptothecin (% of control)": 84.7}
{"gene": "CRKL (GeneID 1399)", "siRNA no.": 3, "log2 vehicle/camptothecin viability": -0.489, "viability with camptothecin (% of control)": 63.6}
